The results in this text go back to paper PMC5119886, “POWERDRESS interacts with HISTONE DEACETYLASE 9 to promote aging in Arabidopsis” (eLife, 2016).

Protein sequences, listed by entry. Tags and fused reporters are not part of them.
UniProt O22130: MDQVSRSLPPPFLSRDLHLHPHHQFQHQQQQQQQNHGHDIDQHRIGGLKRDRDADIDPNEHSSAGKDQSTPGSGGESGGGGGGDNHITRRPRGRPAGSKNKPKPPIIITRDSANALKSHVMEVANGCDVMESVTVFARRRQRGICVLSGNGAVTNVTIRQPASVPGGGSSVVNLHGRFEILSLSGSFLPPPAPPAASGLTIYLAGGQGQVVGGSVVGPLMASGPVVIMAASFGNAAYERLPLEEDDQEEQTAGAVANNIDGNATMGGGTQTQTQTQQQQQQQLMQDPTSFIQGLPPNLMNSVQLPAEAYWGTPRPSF

In experiment [1] the target is T1, HDA9-3xFLAG (HISTONE … 9, pHDA9::HDA9-3xFLAG/hda9) (Arabidopsis thaliana) (UniProt Q8H0W2).
T1 sequence: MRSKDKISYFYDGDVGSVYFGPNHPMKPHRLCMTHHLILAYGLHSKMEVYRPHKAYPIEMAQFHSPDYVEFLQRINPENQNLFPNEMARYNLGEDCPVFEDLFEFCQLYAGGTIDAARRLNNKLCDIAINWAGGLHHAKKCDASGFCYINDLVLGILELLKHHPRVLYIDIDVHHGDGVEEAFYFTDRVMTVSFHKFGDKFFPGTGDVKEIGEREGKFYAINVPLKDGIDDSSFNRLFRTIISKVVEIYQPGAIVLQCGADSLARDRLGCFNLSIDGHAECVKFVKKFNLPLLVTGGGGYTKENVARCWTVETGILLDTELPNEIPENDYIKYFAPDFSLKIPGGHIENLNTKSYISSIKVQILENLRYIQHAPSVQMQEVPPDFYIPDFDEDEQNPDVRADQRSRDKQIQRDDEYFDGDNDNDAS
The experiment in a line: affinity purification with mass spectrometry; about 20 g leaves of HDA9-FLAG, PWR-FLAG or WT (negative control) plants; extract in IP Binding Buffer (50 mM Tris-HCl pH 8, 150 mM NaCl, 5 mM MgCl2, 5% glycerol, 0.1% NP-40, 1 mM DTT); anti-FLAG M2 magnetic beads, 4°C, 3 hr; eluted with 3xFLAG peptide; Orbitrap MS.

The target in experiment [2] is T1, HDA9-3xFLAG (HISTONE … 9, pHDA9::HDA9-3xFLAG/hda9) (Arabidopsis thaliana). The experiment is described as above. This is another data set of the same source.

Read-outs that look alike come from different tables or passages of the source. These are yes or no findings as the source states them, for the method shown. Binding seen in cells or lysates may run through a third protein. Here binding means that the protein was enriched with, or labelled near, the bait; the list need not be complete. Where a sequence is shown, tags or fusion partners need not be part of it.

As for “AHL22, endogenous (from UniProt O22130 1-317)”, the binding entry in experiment [1] is reported as “binds”.

B1: GST-WRKY53 (GST tagged full-length WRKY53) (natural protein, Arabidopsis thaliana, UniProt Q9SUP6 1-324, looked up)
chain: MEGRDMLSWEQKTLLSELINGFDAAKKLQARLREAPSPSSSFSSPATAVAETNEILVKQIVSSYERSLLLLNWSSSPSVQLIPTPVTVVPVANPGSVPESPASINGSPRSEEFADGGGSSESHHRQDYIFNSKKRKMLPKWSEKVRISPERGLEGPQDDVFSWRKYGQKDILGAKFPRSYYRCTHRSTQNCWATKQVQRSDGDATVFEVTYRGTHTCSQAITRTPPLASPEKRQDTRVKPAITQKPKDILESLKSNLTVRTDGLDDGKDVFSFPDTPPFYNYGTINGEFGHVESSPIFDVVDWFNPTVEIDTTFPAFLHESIYY
notes: WRKY53 transcription factor, Arabidopsis thaliana; full-length cDNA cloned into pGOOD (pGEX-6P modified by adding a 6XHIS tag at the C terminus); Primers are in Supplementary file 1; source: E. coli, induced with 200 uM IPTG for three hours at 37°C, purified
On to B1, for which, in experiment [2], the binding result is “binds”.
